Laboratory results reported in the supplement of paper PMC4604168 (melanoma cell lines).
Some of the results follow. Many values rest on one well or one pass, so single values are uncertain.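 The apoptosis fraction was the count of cleaved-PARP antibody-stained nuclei relative to all DNA-stained nuclei, imaged in 1,536-well plates. Screening doses were set so most cells survived, and baseline and induced cleaved-PARP levels vary greatly across cell lines.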

What was measured:
Assay in all cases: cleaved PARP positive nuclei fraction relative to DMSO control; melanoma cells; higher = more apoptosis
Conditions in all cases: library dose: low library concentration; 72 h
MZ2-MEL = system: MZ2-MEL
MeWo = system: MeWo
RPMI7951 = system: RPMI7951
RVH-421 = system: RVH-421
SkMel28 = system: SkMel28
SkMel2 = system: SkMel2
SkMel30 = system: SkMel30
UACC62 = system: UACC62
WM115 = system: WM115
WM1716 = system: WM1716
WM1745 = system: WM1745
WM3526 = system: WM3526
WM3619 = system: WM3619
WM451Lu = system: WM451Lu
SkMel5 = system: SkMel5
UACC257 = system: UACC257

SMILES	cleaved PARP positive nuclei fraction (MZ2-MEL)	cleaved PARP positive nuclei fraction (MeWo)	cleaved PARP positive nuclei fraction (RPMI7951)	cleaved PARP positive nuclei fraction (RVH-421)	cleaved PARP positive nuclei fraction (SkMel28)	cleaved PARP positive nuclei fraction (SkMel2)	cleaved PARP positive nuclei fraction (SkMel30)	cleaved PARP positive nuclei fraction (UACC62)	cleaved PARP positive nuclei fraction (WM115)	cleaved PARP positive nuclei fraction (WM1716)	cleaved PARP positive nuclei fraction (WM1745)	cleaved PARP positive nuclei fraction (WM3526)	cleaved PARP positive nuclei fraction (WM3619)	cleaved PARP positive nuclei fraction (WM451Lu)	cleaved PARP positive nuclei fraction (SkMel5)	cleaved PARP positive nuclei fraction (UACC257)
O=c1[nH]nc(Sc2ncc([N+](=O)[O-])s2)n1-c1ccc2c(c1)OCCO2 + Cc1nc(Nc2ncc(C(=O)Nc3c(C)cccc3Cl)s2)cc(N2CCN(CCO)CC2)n1 [dasatanib] (first compound 0.2 µM, partner dose 0.004 µM)	101%	76.1%	242%	131%	70.9%	171%	131%	131%	108%	91.5%	121%	26.5%	96.7%	177%	–	–
CC[C@]1(O)C[C@H]2CN(CCc3c([nH]c4ccccc34)[C@@](C(=O)OC)(c3cc4c(cc3OC)N(C=O)[C@H]3[C@@](O)(C(=O)OC)[C@H](OC(C)=O)[C@]5(CC)C=CCN6CC[C@]43[C@@H]65)C2)C1 [vincristine] + CNC(=O)c1cc(Oc2ccc(NC(=O)Nc3ccc(Cl)c(C(F)(F)F)c3)cc2)ccn1 [sorafenib] (first compound 0.0001 µM, partner dose 0.4 µM)	235%	105%	259%	45.8%	112%	213%	233%	97.6%	1130%	182%	130%	94.8%	210%	100%	–	–
Cc1cn(-c2cc(NC(=O)c3ccc(C)c(Nc4nccc(-c5cccnc5)n4)c3)cc(C(F)(F)F)c2)cn1 [nilotinib] + CC(=O)c1c(C)c2cnc(Nc3ccc(N4CCNCC4)cn3)nc2n(C2CCCC2)c1=O [palbociclib] (first compound 0.2 µM, partner dose 0.04 µM)	92.3%	37.6%	107%	93.4%	77.4%	32.6%	43.9%	44.6%	84.3%	120%	132%	48.7%	95.5%	69.7%	–	–
O=C(Nc1cc(C(F)(F)F)cc(C(F)(F)F)c1)c1cc(Cl)ccc1O + CN(c1ncccc1CNc1nc(Nc2ccc3c(c2)CC(=O)N3)ncc1C(F)(F)F)S(C)(=O)=O [PF562271] (first compound 0.016 µM, partner dose 0.08 µM)	78.9%	167%	55.8%	109%	95.7%	124%	58.9%	234%	305%	78.5%	115%	208%	112%	50%	–	–
CCCCCCCCCCCCCCCCCCOP(=O)([O-])OC1CC[N+](C)(C)CC1 [Perifosine] + C[C@]1(c2nc3c(C(N)=O)cccc3[nH]2)CCCN1 [Veliparib] (first compound 0.4 µM, partner dose 1.4 µM)	85%	121%	308%	90.5%	76.6%	122%	31%	2330%	163%	90.6%	115%	63.4%	134%	54.8%	–	–
COc1cc([C@@H]2c3cc4c(cc3[C@@H](O[C@@H]3O[C@@H]5CO[C@@H](C)O[C@H]5[C@H](O)[C@H]3O)[C@H]3COC(=O)[C@H]23)OCO4)cc(OC)c1O [etoposide] + C[C@@H](N)c1ccc(C(=O)Nc2ccnc3[nH]ccc23)cc1 [RKI983] (first compound 0.02 µM, partner dose 0.4 µM)	85.4%	100%	41.3%	251%	119%	184%	116%	153%	102%	30.5%	106%	47.7%	84.6%	–	–	–
Cc1cc(Nc2cc(N3CCN(C)CC3)nc(Sc3ccc(NC(=O)C4CC4)cc3)n2)n[nH]1 [Tozasertib] + COc1ccc(C2=N[C@@H](c3ccc(Cl)cc3)[C@@H](c3ccc(Cl)cc3)N2C(=O)N2CCNC(=O)C2)c(OC(C)C)c1 [Nutlin-3] (first compound 0.006 µM, partner dose 0.1 µM)	14.8%	247%	83.8%	208%	111%	57.1%	74.5%	52%	115%	95.9%	192%	52.3%	108%	94.2%	–	–
CCCCCCCCCCCCCCCCCCOP(=O)([O-])OC1CC[N+](C)(C)CC1 [Perifosine] + C[C@]1(O)C[C@@H](c2nc(-c3ccc4ccc(-c5ccccc5)nc4c3)c3c(N)nccn32)C1 [OSI906] (first compound 0.4 µM, partner dose 0.4 µM)	151%	122%	333%	318%	119%	284%	65.4%	215%	122%	80%	865%	51.9%	85.2%	97.6%	–	–
N#CC[C@H](C1CCCC1)n1cc(-c2ncnc3[nH]ccc23)cn1 [ruxolitinib] + OCc1c[nH]c2ccccc12 [Indole-3-carbinol] (first compound 1 µM, partner dose 0.8 µM)	128%	88.7%	90%	85.7%	27.1%	55.4%	115%	58.1%	82.8%	107%	104%	63.7%	112%	69.8%	–	–
O=c1[nH]nc(Sc2ncc([N+](=O)[O-])s2)n1-c1ccc2c(c1)OCCO2 + O=C(/C=C/c1cccnc1)NCCCCC1CCN(C(=O)c2ccccc2)CC1 [FK866] (first compound 0.2 µM, partner dose 0.01 µM)	184%	130%	197%	137%	39.3%	443%	254%	167%	105%	111%	168%	74.3%	111%	85.3%	–	–
COc1cc([C@@H]2c3cc4c(cc3[C@@H](O[C@@H]3O[C@@H]5CO[C@@H](C)O[C@H]5[C@H](O)[C@H]3O)[C@H]3COC(=O)[C@H]23)OCO4)cc(OC)c1O [etoposide] + O=C(Nc1cccc(Cl)c1)Nc1ncc(CCNc2ncnc3ccsc23)s1 [SNS314] (first compound 0.02 µM, partner dose 0.0008 µM)	118%	58.6%	134%	103%	286%	251%	68.7%	75%	–	95.8%	94%	18.6%	–	50%	45.2%	83.7%
CCCCCCCCCCCCCCCCCCOP(=O)([O-])OC1CC[N+](C)(C)CC1 [Perifosine] + Nc1ncn([C@H]2C[C@H](O)[C@@H](CO)O2)c(=O)n1 [decitabine] (first compound 0.4 µM, partner dose 0.1 µM)	128%	114%	64.4%	66.1%	71.9%	78.3%	143%	73.5%	73.7%	41.5%	96.2%	81.2%	101%	142%	–	–
COc1cc([C@@H]2c3cc4c(cc3[C@@H](O[C@@H]3O[C@@H]5CO[C@@H](C)O[C@H]5[C@H](O)[C@H]3O)[C@H]3COC(=O)[C@H]23)OCO4)cc(OC)c1O [etoposide] + Nc1ccn([C@@H]2O[C@H](CO)[C@@H](O)C2(F)F)c(=O)n1 [gemcitabine] (first compound 0.02 µM, partner dose 0.0004 µM)	104%	170%	81.1%	65.5%	89.6%	109%	186%	179%	120%	156%	108%	49%	–	–	–	–
N#CC[C@H](C1CCCC1)n1cc(-c2ncnc3[nH]ccc23)cn1 [ruxolitinib] + COc1ccc(C2=N[C@@H](c3ccc(Cl)cc3)[C@@H](c3ccc(Cl)cc3)N2C(=O)N2CCNC(=O)C2)c(OC(C)C)c1 [Nutlin-3] (first compound 1 µM, partner dose 0.1 µM)	75.3%	147%	17.1%	62.8%	211%	64.9%	38.2%	133%	152%	58.3%	85.3%	54.9%	67.8%	49.5%	–	–
Cc1cn(-c2cc(NC(=O)c3ccc(C)c(Nc4nccc(-c5cccnc5)n4)c3)cc(C(F)(F)F)c2)cn1 [nilotinib] + Nc1ncn([C@H]2C[C@H](O)[C@@H](CO)O2)c(=O)n1 [decitabine] (first compound 0.2 µM, partner dose 0.1 µM)	149%	165%	103%	181%	90.8%	43%	69.8%	49.6%	111%	153%	100%	213%	97%	61.3%	–	–
O=c1[nH]nc(Sc2ncc([N+](=O)[O-])s2)n1-c1ccc2c(c1)OCCO2 + Nc1cccc2c1CN(C1CCC(=O)NC1=O)C2=O [lenalidomide] (first compound 0.2 µM, partner dose 1 µM)	19.5%	161%	262%	26.8%	65.1%	143%	34.7%	173%	147%	67.6%	89.5%	79.8%	93.3%	86.3%	–	–
O=c1[nH]nc(Sc2ncc([N+](=O)[O-])s2)n1-c1ccc2c(c1)OCCO2 + C[C@]1(c2nc3c(C(N)=O)cccc3[nH]2)CCCN1 [Veliparib] (first compound 0.2 µM, partner dose 1.4 µM)	122%	104%	35.7%	51.4%	26.3%	191%	63.1%	81.3%	91.7%	66.6%	76.6%	55.1%	85.9%	69.5%	–	–
N#CC[C@H](C1CCCC1)n1cc(-c2ncnc3[nH]ccc23)cn1 [ruxolitinib] + CN(c1ncccc1CNc1nc(Nc2ccc3c(c2)CC(=O)N3)ncc1C(F)(F)F)S(C)(=O)=O [PF562271] (first compound 1 µM, partner dose 0.08 µM)	102%	42.4%	133%	45.4%	90.5%	53.8%	81.1%	105%	257%	41.9%	91.3%	83.6%	88.9%	57.3%	–	–
Cc1cc(Nc2cc(N3CCN(C)CC3)nc(Sc3ccc(NC(=O)C4CC4)cc3)n2)n[nH]1 [Tozasertib] + Cn1c(=O)n(-c2ccc(C(C)(C)C#N)cc2)c2c3cc(-c4cnc5ccccc5c4)ccc3ncc21 [NVP-BEZ235] (first compound 0.006 µM, partner dose 0.004 µM)	67.4%	48.7%	55.7%	53.8%	86.4%	117%	42.1%	53%	46.3%	38.7%	98.3%	46.7%	97.4%	77.5%	–	–

Single values from the entries so far:
Under cleaved PARP positive nuclei fraction (SkMel28), O=c1[nH]nc(Sc2ncc([N+](=O)[O-])s2)n1-c1ccc2c(c1)OCCO2 + Cc1nc(Nc2ncc(C(=O)Nc3c(C)cccc3Cl)s2)cc(N2CCN(CCO)CC2)n1 [dasatanib] (first compound 0.2 µM, partner dose 0.004 µM) shows 70.9%
Under cleaved PARP positive nuclei fraction (UACC62), CCCCCCCCCCCCCCCCCCOP(=O)([O-])OC1CC[N+](C)(C)CC1 [Perifosine] + C[C@]1(c2nc3c(C(N)=O)cccc3[nH]2)CCCN1 [Veliparib] (first compound 0.4 µM, partner dose 1.4 µM) shows 2330%
